Experimental findings from article PMC12431657, “Discovery and mechanistic insights of dibenzoylmethane as a broad spectrum inhibitor of coronavirus” (PLOS Pathogens, 2025) are described below.

Counter-ions that a name gives are not always drawn. Like-named read-outs stand apart in the source and are kept apart here. The campaign covered roughly 3,300 compounds. About 95 (3%) showed an effect of 50% or more. The list shows a part of the results.

In the test the test system is HCoV-229E. Details: species or system Huh-7; HTS, protection from HCoV-229E induced cell death, luminescent cell viability (CellCounting-Lite 2.0), inhibition rate. The note with it: 24 h post infection, 1 h compound pre-incubation, 10 µM, inhibitor.

For the molecule `O=C(O)C(=O)O` [Oxalic Acid], under “229E Inhibition rate, 24 h”, the “229E Inhibition rate” value came to 12.5%. For `CC(C(=O)c1ccc(O)cc1O)c1ccc(O)cc1` (stereo not shown) [O-Desmethylangolensin], the “229E Inhibition rate” value is recorded as 0%. For the molecule `C[C@H](C[C@H](O)[C@@H](O)C(C)(C)O)C1=C2C[C@H](O)[C@H]3[C@@]4(C)CCC(=O)C(C)(C)[C@@H]4CC[C@]3(C)[C@@]2(C)CC1` [Alisol A], the “229E Inhibition rate” value came out at 7.4%.

For the molecule `O=c1cc(-c2ccc(O)c(-c3c(O)cc(O)c4c(=O)cc(-c5ccc(O)cc5)oc34)c2)oc2cc(O)cc(O)c12` [Amentoflavone], the “229E Inhibition rate” value was found to be 8.5%.

As for `C=C(C)[C@@H]1CC[C@]2(C(=O)O)CC[C@]3(C)[C@H](CC[C@@H]4[C@@]5(C)CC[C@H](O)[C@@](C)(CO)[C@@H]5CC[C@]43C)[C@@H]12` [23-Hydroxybetulinic acid], the “229E Inhibition rate” value amounted to 6.3%. In the case of `C=C1CC23C[C@H]4[C@@H]5[C@@]6(C)C[C@H](OC(C)=O)C[C@]57C(N4C6)[C@@]2(O)[C@H](OC(C)=O)[C@H]1[C@@H](O)[C@H]37` [Guanfu base A], the “229E Inhibition rate” value was found to be 13%.

Regarding `COc1ccc(/C=C/C(=O)c2c(O)cc(OC)cc2OC)cc1` [Flavokawain A], the “229E Inhibition rate” value is 0%.

Consider `CC1(C)C[C@H]2C3=CC[C@@H]4[C@@]5(C)CC[C@H](O)[C@@](C)(CO)[C@@H]5CC[C@@]4(C)[C@]3(C)C[C@H](O)[C@@]2(CO)[C@@H](O)[C@@H]1O` [Gymnemagenin], for which the “229E Inhibition rate” value is given as 6.8%. Same read-out and setting: for `C[C@@H]1O[C@@H](O[C@H]2C[C@@H](O)[C@]3(CO)[C@H]4[C@H](O)C[C@]5(C)[C@@H](C6=CC(=O)OC6)CC[C@]5(O)[C@@H]4CC[C@]3(O)C2)[C@H](O)[C@H](O)[C@H]1O` [Ouabain (Octahydrate)] the value was 13.6%. As for `Nc1ncnc2c1ncn2[C@@H]1O[C@H](COP(=O)(O)OP(=O)(O)OP(=O)(O)O)[C@@H](O)[C@H]1O` [ATP (disodium salt hydrate)], for the setting “229E Inhibition rate, 24 h”, the “229E Inhibition rate” value was 3.4%. As to `CC(C)=CCC[C@](C)(O)[C@H]1CC[C@]2(C)[C@@H]1[C@H](O)C[C@@H]1[C@@]3(C)CC[C@H](O)C(C)(C)[C@@H]3CC[C@]12C` [(20S)-Protopanaxadiol], the “229E Inhibition rate” value is reported as 22.7%. Consider `CC(C)=CCC/C(C)=C/Cc1c(O)ccc(C(=O)/C=C/c2ccc(O)cc2)c1O` [Xanthoangelol], for which the “229E Inhibition rate” value is recorded as 13.6%. Same read-out and setting: next, `O=c1cc(-c2ccccc2)oc2c(O)c(O)cc(O)c12` [Norwogonin]: 37.2%; `COc1cc([C@@H]2c3cc4c(cc3[C@H](O)[C@H]3COC(=O)[C@@H]23)OCO4)cc(OC)c1OC` [Picropodophyllin]: 9.2%; `COc1cc(O[C@@H]2O[C@H](CO)[C@@H](O)[C@H](O)[C@H]2O)c2c(O)c(C(C)=O)c(C)cc2c1` [Torachrysone-8-O-b-D-glucoside]: 3.9%.

Consider `C[C@H]1CC[C@@]2(OC1)O[C@H]1C[C@H]3[C@@H]4CC=C5C[C@@H](O[C@@H]6O[C@H](CO)[C@@H](O)[C@H](O[C@@H]7OC[C@@H](O)[C@H](O)[C@H]7O)[C@H]6O[C@@H]6O[C@@H](C)[C@H](O)[C@@H](O)[C@H]6O)CC[C@]5(C)[C@H]4CC[C@]3(C)[C@H]1[C@@H]2C` [Liriope muscari baily saponins C], for which the “229E Inhibition rate” value was determined as 31%. In the case of `Nc1ncnc2c1ncn2[C@H]1C[C@H](O)[C@@H](CO)O1` [2'-Deoxyadenosine], where the note is “229E Inhibition rate, 24 h”, the “229E Inhibition rate” value is recorded as 3%. Consider `COC(=O)[C@]1(C)CC[C@]2(C(=O)O[C@@H]3O[C@H](CO)[C@@H](O)[C@H](O)[C@H]3O)CC[C@]3(C)C(=CC[C@@H]4[C@@]5(C)C[C@H](O)[C@H](O[C@@H]6OC[C@@H](O[C@@H]7O[C@H](CO)[C@@H](O)[C@H](O)[C@H]7O)[C@H](O)[C@H]6O)[C@@](C)(CO)C5CC[C@]43C)[C@H]2C1` (stereo partly shown) [Esculentoside H], for which the “229E Inhibition rate” value turned out to be 6.7%. Regarding `COc1ccc(-c2cc(=O)c3c(O)c(OC)c(O)c(OC)c3o2)cc1` [Nevadensin], the “229E Inhibition rate” value stood at 22.1%.

On to `CC(=O)c1ccccc1O` [2'-Hydroxyacetophenone], for which the “229E Inhibition rate” value turned out to be 38.7%.

In the case of `NC(=O)CCC(N)C(=O)O` (racemic) [DL-Glutamine], the “229E Inhibition rate” value is 9.3%. Still for that read-out and setting: for `C/C(=C\CNc1ncnc2nc[nH]c12)CO` [trans-Zeatin] the value was 11.1%; for `CCCCCCO` [1-Hexanol], 12.8%; for `CC(=O)OC/C1=C/C[C@H]2[C@@H](/C=C(\C)C(=O)[C@@]3(OC(C)=O)C[C@H](C)[C@H](OC(=O)c4ccccc4)[C@@H]3[C@H]1OC(C)=O)C2(C)C` [Euphorbia factor L7b], 41.1%. On to `CCc1c2c(nc3ccc(O)cc13)-c1cc3c(c(=O)n1C2)COC(=O)[C@]3(O)CC` [SN-38], for which the “229E Inhibition rate” value turned out to be 12.5%. As for `O=c1c(-c2ccc(O)cc2)coc2c([C@@H]3O[C@H](CO[C@@H]4OC[C@@H](O)[C@H](O)[C@H]4O)[C@@H](O)[C@H](O)[C@H]3O)c(O)ccc12` [Puerarin 6''-O-Xyloside], the “229E Inhibition rate” value was determined as 0%. Same read-out and setting: for `O=c1[nH]c2ccccc2c(-c2cccc(O)c2)c1O` [Viridicatol] the value was 6.9%. Regarding `CC1(C)[C@@H](O[C@H]2O[C@H](C(=O)O)[C@@H](O)[C@H](O)[C@H]2O[C@@H]2O[C@H](C(=O)O)[C@@H](O)[C@H](O)[C@H]2O)CC[C@]2(C)[C@H]3C(=O)C=C4[C@@H]5C[C@@](C)(C(=O)O)CC[C@]5(C)CC[C@@]4(C)[C@]3(C)CC[C@@H]12` [Diammonium Glycyrrhizinate], the “229E Inhibition rate” value (229E Inhibition rate, 24 h) came to 0%. With `C/C(=C\CO)CCC[C@H](C)CCC[C@H](C)CCCC(C)C` [Phytol], the “229E Inhibition rate” value turned out to be 25.6%. Regarding `CC1(C)[C@@H](O[C@@H]2O[C@H](C(=O)O)[C@@H](O)[C@H](O)[C@H]2O[C@@H]2O[C@H](C(=O)O)[C@@H](O)[C@H](O)[C@H]2O)CC[C@]2(C)[C@H]3C(=O)C=C4[C@@H]5C[C@](C)(C(=O)O)CC[C@]5(C)CC[C@@]4(C)[C@]3(C)CC[C@@H]12` [Licorice-saponin H2], the “229E Inhibition rate” value is 21.2%. On the same count and under the same terms, for `C[C@@H](CO[C@@H]1O[C@H](CO)[C@@H](O)[C@H](O)[C@H]1O)[C@@H]1CC[C@@]2(CC[C@]3(C)[C@H](CC[C@@H]4[C@@]5(C)CC[C@H](O[C@@H]6O[C@H](CO)[C@@H](O)[C@H](O)[C@H]6O[C@@H]6OC[C@@H](O)[C@H](O)[C@H]6O)[C@@](C)(CO[C@@H]6O[C@H](CO)[C@@H](O)[C@H](O)[C@H]6O)[C@@H]5CC[C@]43C)[C@H]2O)CO1` [Hosenkoside M] the value was 10.1%.
